Laboratory results as given in PubChem BioAssay AID720591 (Broad Institute, 2013).
In all, about 1,200 compounds went through this assay and about 60 (5%) were called active. Inconclusive results (about 1%) are left out.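 How the source made its calls: active means Decreasing signal and fitted IC50 at most twice the top valid tested dose; inconclusive means Bad fit or a level curve showing 30 to 70% inhibition; inactive means the rest.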 The list shows a part of the results. Entries with a potency or affinity are not part of this list.

Protein sequences, listed by entry. Tags and fused reporters are not part of them. Lines headed by an entry give the natural chain unless they say otherwise; changes in a name come on top.
UniProt Q9NXA8: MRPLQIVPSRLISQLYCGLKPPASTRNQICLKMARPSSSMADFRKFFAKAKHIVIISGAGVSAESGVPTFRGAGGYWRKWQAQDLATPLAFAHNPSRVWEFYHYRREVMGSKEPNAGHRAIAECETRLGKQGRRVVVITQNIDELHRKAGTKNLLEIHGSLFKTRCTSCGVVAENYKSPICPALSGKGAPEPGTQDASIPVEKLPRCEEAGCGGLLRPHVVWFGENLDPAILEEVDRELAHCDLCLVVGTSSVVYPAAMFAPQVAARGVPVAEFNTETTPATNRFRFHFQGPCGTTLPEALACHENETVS

target: NAD-dependent protein deacylase sirtuin-5, mitochondrial (Homo sapiens) (UniProt Q9NXA8); assay: SIRT5 desuccinylase inhibitors, dose response, biochemical, fluorescence imaging, cherry-pick, set 5 (AID 720591); settings: Purified SirT5, succinyl-peptide AMC, trypsin-coupled fluorescence; at 15 µM (top of the series) unless noted;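 further: 0% = median of neutral control wells and -100% = median of positive control wells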

Row | Structure (SMILES) | activity change, negative = inhibition
1 | Cc1ccc(C(=O)OC(C)CN2CCN(C)CC2)cc1 (stereo not given) | inactive: -19.7%
2 | NC(=O)CSc1nc2ccccc2n1-c1ccccc1 | inactive: 2.91%
3 | COc1ccc(CNC2CC(C)N(C)CC2C)cc1OC (stereo not given) | inactive: 7.35%
4 | O=C(CSc1nnc(COc2ccccc2)o1)N1CCOCC1 | inactive: -0.134%
5 | O=C(NNC(=O)c1cccs1)c1ccncc1 | inactive: -19.9%
6 | Cc1[nH]c2ccccc2c1C(=O)C(=O)N1CCN(c2ccccc2Cl)CC1 | inactive: 7.35%
7 | CCc1c(C)nc2ccc(Br)cc2c1SCCC#N | inactive: -8.37%
8 | c1ccc(C[C@H]2CN=C(Nc3ccccc3)N2CC2CCCC2)cc1 | inactive: 22.7%
9 | COC(=O)c1cccc(NC(=O)CSc2nnc(COc3ccc(C#N)cc3)n2-c2ccccc2)c1 | inactive: -25.5%
10 | C=CC[C@@H](CC(=O)OC(C)(C)C)C(=O)OC[C@@H]1CCCN1C(=O)[C@@H](CC=C)CC(=O)N[C@@H](CO)Cc1ccccc1 | inactive: -18.7%
11 | C[C@H](CO)N1C[C@H](C)[C@@H](CN(C)C(=O)Nc2ccccc2)Oc2c(NS(=O)(=O)c3cccs3)cccc2C1=O | inactive: -31%
12 | CC(C)NC(=O)CC1C(=O)N(Cc2ccccc2)C(C)c2nc3ccccc3n21 (stereo not given) | inactive: -21.3%
13 | CCN(CC)CCN1C(=O)C2C(C(=O)Nc3cccc(C)c3)C3C=CC2(O3)C1C(=O)NC1CCCC(C)C1C (stereo not given) | inactive: 26.4%
14 | O=C(c1cccc(S(=O)(=O)N2CCCC2)c1)N(Cc1ccco1)C1CCS(=O)(=O)C1 (stereo not given) | inactive: -7.52%
15 | CC1C(=O)N2CCCc3cc(S(=O)(=O)N4CCCCC4)cc1c32 (stereo not given) | inactive: 10.4%
16 | CCCNC(=O)C1(C)CCCN(Cc2cccc(Oc3ccccc3)c2)C1 (stereo not given) | inactive: 20.7%
17 | Cc1cc(C)n(C(=O)CNC(=O)c2cccs2)n1 | inactive: 0.332%
18 | COc1cccc2c(=O)n(CC(=O)N3CCCc4ccccc43)ccc12 | inactive: -27.1%
19 | O=C(NC1CCCCC1)c1ccc(S(=O)(=O)c2ccccc2)cc1 | inactive: -29.3%
20 | Cc1csc(N2CCCC2=O)n1 | inactive: 38.1%
21 | CCOC(=O)c1cnc2nc(C)nn2c1N | inactive: -12.8%
22 | CC(=O)c1cn(CC(=O)Nc2cccc(C)c2C)c2ccccc12 | inactive: -1.97%
23 | CCOC(=O)C1=CCN(S(=O)(=O)c2ccccc2Br)C1c1ccc(Cl)c(Cl)c1 (stereo not given) | inactive: -30.7%
24 | CN1C(=O)[C@H]2[C@@H](C3CC3)N3C(=O)CN(CCO)C(=O)[C@@]3(Cc3ccccc3)[C@H]2C1=O | inactive: -16.4%
25 | Cc1ccc(S(=O)(=O)N2CCC(=O)N([C@H](COCc3cccc(Cl)c3)Cc3ccccc3)CC2)cc1 | inactive: -25%

Sorted by molecular weight (ascending): some entries from above.
Row | Structure (SMILES) | activity change, negative = inhibition
17 | Cc1cc(C)n(C(=O)CNC(=O)c2cccs2)n1 | inactive: 0.332%
1 | Cc1ccc(C(=O)OC(C)CN2CCN(C)CC2)cc1 (stereo not given) | inactive: -19.7%
19 | O=C(NC1CCCCC1)c1ccc(S(=O)(=O)c2ccccc2)cc1 | inactive: -29.3%
